Experimental data as given in PMC5550887.
These are yes or no findings as the source states them, for the method shown. Binding seen in cells or lysates may run through a third protein.

The chains behind the UniProt entries cited, without tags or fusion partners. Residues count along the entry.
UniProt P11021, residues 19-654: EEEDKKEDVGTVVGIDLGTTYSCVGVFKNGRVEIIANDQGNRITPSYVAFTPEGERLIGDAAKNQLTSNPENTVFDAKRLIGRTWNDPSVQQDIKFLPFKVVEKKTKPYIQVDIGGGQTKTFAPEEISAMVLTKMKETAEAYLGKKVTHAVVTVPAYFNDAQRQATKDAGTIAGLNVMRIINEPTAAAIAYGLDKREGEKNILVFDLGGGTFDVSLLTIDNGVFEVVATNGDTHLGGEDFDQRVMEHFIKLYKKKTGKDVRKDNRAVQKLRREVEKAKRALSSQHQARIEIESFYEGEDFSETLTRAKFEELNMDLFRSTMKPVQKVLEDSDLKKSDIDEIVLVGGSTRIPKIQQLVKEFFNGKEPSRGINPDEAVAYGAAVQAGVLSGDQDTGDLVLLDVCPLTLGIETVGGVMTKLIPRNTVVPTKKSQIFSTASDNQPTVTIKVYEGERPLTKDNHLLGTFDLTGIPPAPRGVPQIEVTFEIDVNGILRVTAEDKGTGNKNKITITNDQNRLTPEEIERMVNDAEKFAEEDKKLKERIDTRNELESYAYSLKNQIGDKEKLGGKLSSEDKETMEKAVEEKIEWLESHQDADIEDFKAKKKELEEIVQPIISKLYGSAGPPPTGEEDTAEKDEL
UniProt P45983: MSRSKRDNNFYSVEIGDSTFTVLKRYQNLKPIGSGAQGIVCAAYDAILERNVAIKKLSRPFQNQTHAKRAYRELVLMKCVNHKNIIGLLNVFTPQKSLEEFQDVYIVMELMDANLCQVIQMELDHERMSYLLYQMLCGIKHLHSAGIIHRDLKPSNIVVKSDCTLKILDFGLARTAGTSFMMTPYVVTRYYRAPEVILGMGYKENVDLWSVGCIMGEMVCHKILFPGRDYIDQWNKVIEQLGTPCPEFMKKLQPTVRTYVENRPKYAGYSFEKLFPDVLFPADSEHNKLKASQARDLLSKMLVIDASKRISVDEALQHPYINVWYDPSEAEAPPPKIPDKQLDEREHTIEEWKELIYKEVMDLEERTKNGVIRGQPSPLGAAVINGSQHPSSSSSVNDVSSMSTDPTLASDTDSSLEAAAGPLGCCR

Target: T1, WWOX (WW domain containing oxidoreductase) (UniProt Q9NZC7)
T1 sequence: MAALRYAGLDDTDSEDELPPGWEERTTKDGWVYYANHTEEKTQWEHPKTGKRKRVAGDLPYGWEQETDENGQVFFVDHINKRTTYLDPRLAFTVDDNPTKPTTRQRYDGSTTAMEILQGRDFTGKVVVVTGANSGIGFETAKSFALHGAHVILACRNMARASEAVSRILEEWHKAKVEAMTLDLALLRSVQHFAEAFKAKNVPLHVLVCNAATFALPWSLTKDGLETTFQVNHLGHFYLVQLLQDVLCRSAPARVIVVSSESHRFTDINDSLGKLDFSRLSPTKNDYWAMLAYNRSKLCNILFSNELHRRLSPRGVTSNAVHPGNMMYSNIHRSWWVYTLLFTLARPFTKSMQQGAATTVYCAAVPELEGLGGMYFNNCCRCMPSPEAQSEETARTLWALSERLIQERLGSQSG
Test: co-IP; lysates of cells exposed to paclitaxel (WWOX-8 cells named for GRP78); lysis in 0.5-1% Triton X or 0.5-1% NP40, 10% glycerol, 150 mM NaCl, 50 mM Tris-HCl pH 7.2; 2 ug relevant or control antibody, Protein A/G UltraLink resin, 4 °C; immunoblot

| binding | Substance |
| --- | --- |
| no binding | glucose-related protein 78 (GRP78) (from UniProt P11021 19-654) |
| no binding | c-Jun N-terminal kinase 1 (JNK1) (from UniProt P45983 1-427) |
